The source of these data is PMC10838953.

The test system of this series is 786-O cells. The settings on record: 5 μM, 24h, corrected p <0.05, |log2FC| > 0.5.

With `O=C(O)c1ccc2c(c1)nc(Nc1cccc(Cl)c1)c1ccncc12` [CX-4945, silmitasertib], the “genes significantly differentially expressed compared to DMSO” value is given as 102.
In the case of `CC(C)COC(=O)c1[nH]c2ccc(F)cc2c1-c1cn(CC2CCN(CCNS(=O)(=O)c3ccc(CC(C)C)cc3)CC2)nn1` [AB668, isobutyl 5-fluoro-3-(1-((1-(2-((4-isobutylphenyl)sulfonamido)ethyl)piperidin-4-yl)methyl)-1H-1,2,3-triazol-4-yl)-1H-indole-2-carboxylate], the “genes significantly differentially expressed compared to DMSO” value worked out at 48.
